Assay results from publication PMC10443802 (JCI Insight, 2023).

Test system: OATP1B2
Assay: Untargeted metabolomics of plasma and DRG, WT vs OATP1B2-deficient mice
Format: in vivo, mouse
[1] = untargeted metabolomics, sheet "Figure 5C", WT vs OATP1B2-deficient mice
[2] = untargeted metabolomics, WT vs OATP1B2-deficient mice, supplement sheet "Figure 5B" (volcano plot)
[3] = Figure 5B source data (volcano plot), untargeted metabolomics, WT vs OATP1B2-deficient mice, log2 fold change of metabolite level
[4] = untargeted metabolomics, WT vs OATP1B2-deficient mice, supplement sheet "Figure 5B"

SMILES | Log2FoldChange [1] | Log2FoldChange [2] | other results
CCCCCCCC/C=C\CCCCCCCC(=O)O[C@H](COC(=O)CCCCCCCCCCCCCCC)COP(=O)(O)OC[C@H](N)C(=O)O [1-palmitoyl-2-oleoyl-GPS (16:0/18:1)] | -0.4739 |  | 
O=P(O)(OCC(O)CO)OCC(O)CO (stereo not shown) [glycerophosphoglycerol] |  | 0.2869 | 
CCCCCCCCCCCCCC(=O)OCC(O)CO (stereo not shown) [1-myristoylglycerol (14:0)] | 0.3785 |  | Log2FoldChange [3]: -0.2176
Nc1nc2nc[nH]c2c(=O)[nH]1 [guanine] | 0.02857 |  | 
CO[C@@H]1[C@H](O)[C@@H](CO)O[C@H]1n1ccc(=O)[nH]c1=O [2'-O-methyluridine] | 0.433 |  | Log2FoldChange [3]: -0.2176
CC(N[C@@H](Cc1ccccc1)C(=O)O)C(=O)O (stereo partly shown) [1-carboxyethylphenylalanine] |  | 0.4751 | 
CCCCCCCC/C=C\CCCCCCCC(=O)OCC(O)CO (stereo not shown) [1-oleoylglycerol (18:1)] |  |  | Log2FoldChange [4]: -0.074
N[C@@H](CCC(=O)N[C@@H](Cc1c[nH]cn1)C(=O)O)C(=O)O [gamma-glutamylhistidine] |  |  | Log2FoldChange [4]: -0.1047
COC(=O)[C@@H](N)Cc1cnc[nH]1 [histidine methyl ester] | 0.7655 |  | 
CCCCCCCCCCCCCCCC(=O)OCC[N+](C)(C)C [palmitoylcholine] | 1.07 |  | 
O=C(O)CCCCCCCCCCCCCCCCCCCCC(=O)O [docosadioate (C22-DC)] |  | 0.2388 | 
CC[C@H](C)[C@H](NC(=O)CN)C(=O)O [glycylisoleucine] (H-Gly-Ile-OH) | 0.263 |  | 
O=C(O)C(O)Cc1ccc(O)cc1 (stereo not shown) [3-(4-hydroxyphenyl)lactate] | 0.3334 |  | 
CCCCCCCCCCCCCCCC(=O)OC[C@H](COP(=O)(O)OCCN)OC(=O)CCCCCCCCCCCCCCC [1,2-dipalmitoyl-GPE (16:0/16:0)*] |  | 1.014 | 
O=C(O)C=Cc1ccc(OS(=O)(=O)O)cc1 [4-hydroxycinnamate sulfate] |  | 0.856 | 
N[C@@H](CC(=O)O)C(=O)O [aspartate] | 0.08406 | 0.2388 | 
CCCCCCCCCCCC(O)CC(=O)O (stereo not shown) [3-hydroxymyristate] | 0.08406 |  | Log2FoldChange [3]: -0.1844
CCCCCc1oc(CCC(=O)O)c(C(=O)O)c1C |  |  | Log2FoldChange [3]: -1.2863
CCCCCC/C=C\CCCCCCCC(N)=O [palmitoleamide (16:1)*] |  | 0.4005 | 
[H]/N=C(/N)NCC(=O)O [guanidinoacetate] | 0.2016 |  | 

SMILES | Log2FoldChange [1] | Log2FoldChange [2] | other results
CC[C@H](CC[C@@H](C)[C@H]1CC[C@H]2[C@@H]3CC=C4C[C@@H](O)CC[C@]4(C)[C@H]3CC[C@]12C)C(C)C [beta-sitosterol] |  |  | Log2FoldChange (mouse, in vivo): 0.4854
NC(CC1C(=O)Nc2ccccc21)C(=O)O (stereo not shown) [oxindolylalanine] | -0.1844 |  | Log2FoldChange [3]: -0.2176
CCCCC/C=C\C/C=C\CCCCCCCC(=O)OC(COC(=O)CCCCCCCCCCCCCCCCC)COP(=O)(O)OC1C(O)C(O)C(O)C(O)C1O (stereo not shown) [1-stearoyl-2-linoleoyl-GPI (18:0/18:2)] |  | 0.3334 | 
NCC(CC[C@H](N)C(=O)O)OC1O[C@H](CO)[C@H](O)[C@H](O)[C@H]1O (stereo partly drawn) [5-(galactosylhydroxy)-L-lysine] |  |  | Log2FoldChange [4]: 0.08406
CCCCCC/C=C\CCCCCCCC(=O)O [palmitoleate (16:1n7)] | 0.189 |  | 
CCCCCCCCCCCCCC=CC(O)C(CO[C@@H]1O[C@H](CO)[C@@H](O[C@@H]2O[C@H](CO)[C@H](O)[C@H](O)[C@H]2O)[C@H](O)[C@H]1O)NC(=O)CCCCCCCCCCCCCCC (stereo partly shown) |  | 0.4751 | 
CCCCC/C=C\C/C=C\C/C=C\C/C=C\CCCC(=O)O [arachidonate (20:4n6)] | 0.263 |  | 
O=C1CC(C(=O)O)NC(=O)N1 (stereo not shown) [dihydroorotate] |  | 0.5361 | 
Cc1ccc(S(=O)(=O)O)cc1 [4-methylbenzenesulfonate] | 0.3674 |  | Log2FoldChange [4]: 0.05658
O=S(=O)(O)Oc1c[nH]c2ccccc12 [3-indoxyl sulfate] | 0.5361 | 0.5656 | 
O=C(O)CCCNCCC(=O)O [carboxyethyl-GABA] |  |  | Log2FoldChange [3]: -0.6897
Cc1cn(C2OC(CO)C(O)C2O)c(=O)nc1N (stereo not shown) [5-methylcytidine] | 0.4114 |  | Log2FoldChange [4]: 0.05658
O=S(=O)(O)Oc1cccc2ccc(O)nc12 [2,8-quinolinediol sulfate] |  | 0.8319 | 
O=C(O)CCCCCCCCCCC(=O)O [dodecanedioate (C12-DC)] |  | 3.021 | 
O=C(O)[C@H](O)COP(=O)(O)O [3-phosphoglycerate] | -0.1681 |  | 
CCCCCCCCCCCCCCC(=O)O[C@H](CC(=O)[O-])C[N+](C)(C)C [pentadecanoylcarnitine (C15)*] | -0.1681 | 0.8237 | 
CC(C)C(=O)C(=O)O [3-methyl-2-oxobutyrate] | 0.08406 |  | Log2FoldChange [3]: -0.2863
OC[C@@H](O)[C@@H](O)CO [erythritol] |  | 0.3896 | 
C[N+](C)(C)CCCC[C@H](N)C(=O)O [N6,N6,N6-trimethyllysine] | 0.251 |  | 
NCCC(=O)N[C@@H](Cc1cnc[nH]1)C(=O)O [carnosine] |  |  | Log2FoldChange [4]: -0.08927

SMILES | Log2FoldChange [1] | Log2FoldChange [2] | other results
O=C1CCNC(=O)N1 [5,6-dihydrouracil] |  | 0.251 | 
CCCCCCCCCCCCCCCCCCC(O)C(=O)O (stereo not shown) [2-hydroxyarachidate*] | 0 |  | Log2FoldChange [3]: -0.5995
O=C(O)C(O)C(=O)O [tartronate (hydroxymalonate)] | 0.02857 |  | 
CC(CCC(=O)O)C1CCC2C3CCC4CC(O)CCC4(C)C3CC(OS(=O)(=O)O)C12C (stereo not shown) [deoxycholic acid 12-sulfate*] |  |  | Log2FoldChange (mouse, in vivo): 0.3219
CNCCCC[C@H](N)C(=O)O [N6-methyllysine] | -1 |  | Log2FoldChange [3]: -0.9714
CC(=O)N[C@@H](CC(=O)c1ccccc1N)C(=O)O [N-acetylkynurenine (2)] |  | 0.4957 | 
C[C@H](NC(=O)[C@@H](N)Cc1cnc[nH]1)C(=O)O [histidylalanine] (H-His-Ala-OH) | 0.1763 |  | 
O=C(O)C(=O)c1c[nH]c2ccccc12 [3-indoleglyoxylic acid] |  |  | Log2FoldChange [4]: -0.1361
CCCCCCCC/C=C\CCCCCCCC(=O)OC(COC(=O)CCCCCCCCCCCCCCCCC)COP(=O)(O)OCC(N)C(=O)O (stereo not shown) [1-stearoyl-2-oleoyl-GPS (18:0/18:1)] | -0.5353 |  | 
NC(CCn1c(=O)ccn([C@@H]2O[C@H](CO)[C@@H](O)[C@H]2O)c1=O)C(=O)O (stereo partly shown) [3-(3-amino-3-carboxypropyl)uridine*] |  |  | Log2FoldChange [4]: -0.074
N[C@@H](CSSC[C@H](N)C(=O)O)C(=O)O [cystine] | 0.263 |  | Log2FoldChange [3]: -0.4739
C[C@H](CCC(=O)O)[C@H]1CC[C@H]2[C@@H]3[C@H](O)[C@@H](O)[C@@H]4C[C@H](O)CC[C@]4(C)[C@H]3CC[C@]12C [alpha-muricholate] |  | 5.499 | 
CC(CCC(=O)NCCS(=O)(=O)O)C1CCC2C3CCC4CC(OS(=O)(=O)O)CCC4(C)C3CC(O)C12C (stereo not shown) [taurodeoxycholic acid 3-sulfate] |  | 0.6599 | 
COc1cc(CC(=O)O)ccc1OS(=O)(=O)O [homovanillate sulfate] |  |  | Log2FoldChange [4]: 0.08406
CC[C@H](NC(=O)CC[C@H](N)C(=O)O)C(=O)NCC(=O)O [ophthalmate] (γGlu-[Abu]-Gly-OH) | 0.2265 |  | Log2FoldChange [4]: -0.1203
O=C(O)c1cc(O)c2cccc(O)c2n1 [xanthurenate] |  | 0.275 | 
O=C(O)CCCC(O)C(=O)O (stereo not shown) [2-hydroxyadipate] | 0.05658 |  | Log2FoldChange [3]: -0.2345
C[N+]1(C)CCC[C@H]1C(=O)[O-] [stachydrine] |  |  | Log2FoldChange (mouse, in vivo): 0.3674 and 0.546

“And” between values parts separate entries of the source, which are not always exact repeats. Identical values can stand only once. Counter-ions that a name gives are not always drawn. *1 amine or outer side, *2 acyl side, *3 side chain or, on linkers, in order; H or OH if unused. Where a SMILES comes first, the peptide text is derived from it. [ ]: non-standard residue; d: D form. γGlu = O=C(O)[C@H](CCC(=O)[*:2])N[*:1]; Abu = CC[C@H](N)C(=O)O
